PubChem BioAssay AID1671195, Yale University – 2021
Test: 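Knockdowns that increase or decrease uptake of fluorescent LDL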 (primary screen). Cells: human Huh7 hepatoma cells. Knock-down reagent: siRNA pool against human genes, 18 nM. Time to read-out: about 2 to 2.5 days of knockdown, then 8 h LDL uptake. Treatment: DiI-labelled LDL at 30 µg/ml for 8 h, in lipoprotein-deficient serum medium. Detection: 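Per-cell DiI-LDL intensity by automated imaging; well means scaled to the plate median and given as a robust z-score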. Direction: robust z-score: higher = more LDL uptake after knockdown. Call rule: 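Active when two or more replicates show a robust z-score above 2 or below -2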.
This is an unselected part of about 22,000 deposited reagents. Of all reagents, about 1,510 (6.9%) are marked active. 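Active includes knockdowns raising or lowering LDL uptake; positive z-scores mean more uptake, negative mean less.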

Target gene,"robust z-score, replicate 1","robust z-score, replicate 2","robust z-score, replicate 3",outcome
SMCP (sperm mitochondria associated cysteine rich protein),0.525,0.707,0.754,inactive
GZMK (granzyme K),1.46,1.27,1.68,inactive
LOC441696 (retired record),-0.654,-1.12,-0.871,inactive
SPATA31H1 (SPATA31 subfamily H member 1),1.31,1.59,1.51,inactive
SEPTIN7 (septin 7),-0.665,0.146,-0.00189,inactive
LOC441043 (retired record),1.09,0.797,1.04,inactive
AIP (AHR interacting HSP90 co-chaperone),-1.92,-2.15,-2.08,active
HNRNPA1P20 (heterogeneous nuclear ribonucleoprotein A1 pseudogene 20),0.0111,0.0565,-0.00605,inactive
IL23R (interleukin 23 receptor),0.262,0.247,0.54,inactive
"RAB30 (RAB30, member RAS oncogene family)",0.854,0.698,1.11,inactive
SF3B1 (splicing factor 3b subunit 1),-0.0372,-0.111,1.05,inactive
RPS4XP13 (ribosomal protein S4X pseudogene 13),-0.433,-0.167,-0.412,inactive
ROCK1 (Rho associated coiled-coil containing protein kinase 1),-1.26,-1.6,-1.78,inactive
ACTN3 (actinin alpha 3),-1.3,-1.21,-0.151,inactive
P2RY2 (purinergic receptor P2Y2),-0.446,0.0394,-0.0116,inactive
FAM117A (family with sequence similarity 117 member A),-0.888,-0.97,-0.783,inactive
ARL10 (ARF like GTPase 10),0.471,-0.0345,1.16,inactive
"RHEB (Ras homolog, mTORC1 binding)",-2.21,-0.0371,-1.41,inactive
SGIP1 (SH3GL interacting endocytic adaptor 1),0.555,-0.11,-0.572,inactive
KIAA0087 (KIAA0087 lncRNA),0.276,-0.505,-1.42,inactive
NCOR2 (nuclear receptor corepressor 2),1.58,0.319,1.42,inactive
PDE4DIPP3 (PDE4DIP pseudogene 3),0.389,0.525,0.826,inactive
LOC440728 (retired record),0.837,1.94,0.752,inactive
KRT9 (keratin 9),-0.764,-0.738,-0.53,inactive
PPP1R12B (protein phosphatase 1 regulatory subunit 12B),1.07,0.414,1.26,inactive
LOC441098 (retired record),-1.07,-1.32,-1.52,inactive
ERI1 (exoribonuclease 1),0.208,-0.206,0.0646,inactive
MRPL10 (mitochondrial ribosomal protein L10),-1.84,-1.56,-1.98,inactive
LIN7B (lin-7 cell polarity scaffold B),-1.94,-1.23,-0.862,inactive
BEND3 (BEN domain containing 3),3.19,2.99,2.5,active
ASB5 (ankyrin repeat and SOCS box containing 5),0.431,-0.476,0.943,inactive
FLJ41170 (retired record),-2.28,-2.2,-2.36,active
KLHL26 (kelch like family member 26),0.92,0.578,-0.342,inactive
GALNT1 (polypeptide N-acetylgalactosaminyltransferase 1),2.47,1.18,1.54,inactive
ZNF429 (zinc finger protein 429),-0.849,-0.932,-1.14,inactive
FBP2 (fructose-bisphosphatase 2),-0.871,-1.15,-0.591,inactive
SARDH (sarcosine dehydrogenase),2.36,2.31,2.01,active
PMF1 (polyamine modulated factor 1),-1.23,-2.07,-1.07,inactive
ZC3H18-DT (ZC3H18 divergent transcript),-0.69,-0.789,-1.12,inactive
ZSCAN22 (zinc finger and SCAN domain containing 22),0.0269,-0.175,-0.173,inactive
RHOXF1 (Rhox homeobox family member 1),0.339,-0.608,-0.355,inactive
OR8I2 (olfactory receptor family 8 subfamily I member 2),-1.83,-1.45,-1.83,inactive
SLC46A1,-0.0271,0.392,-1.37,inactive
VGLL3 (vestigial like family member 3),-1.68,-1.44,-1.49,inactive
CHMP5 (charged multivesicular body protein 5),-1.81,-0.0739,-2.15,inactive
TGFBR3 (transforming growth factor beta receptor 3),-1.13,-0.81,-0.975,inactive
AGO4 (argonaute RISC component 4),1.37,1.13,0.948,inactive
OR51E1 (olfactory receptor family 51 subfamily E member 1),-1.32,-1.58,-1.4,inactive
SNX29P2 (sorting nexin 29 pseudogene 2),0.618,-0.0288,0.988,inactive
OGFOD2,-0.391,-0.527,-0.0824,inactive
CCDC160 (coiled-coil domain containing 160),2.74,2.99,2.43,active
OTP (orthopedia homeobox),0.0996,-0.851,-1.15,inactive
LYG2 (lysozyme g2),0.967,0.4,0.809,inactive
SLC30A9,0.0742,0.459,-0.884,inactive
FADS3 (fatty acid desaturase 3),1.23,0.397,-0.47,inactive
BRF2 (BRF2 general transcription factor IIIB subunit),1.54,1.64,1.48,inactive
PARD6G (par-6 family cell polarity regulator gamma),-1.12,-2.14,-1.47,inactive
SPAG4 (sperm associated antigen 4),-0.827,1.25,-0.288,inactive
MTPN (myotrophin),1.9,1.11,3.06,active
LOC441115 (retired record),0.147,0.0635,0.556,inactive
UNC50 (unc-50 inner nuclear membrane RNA binding protein),1.68,-0.491,0.924,inactive
ALDH5A1 (aldehyde dehydrogenase 5 family member A1),1.52,1.7,1.34,inactive
CPNE2 (copine 2),0.985,1.59,1.45,inactive
ZNF644 (zinc finger protein 644),1.29,0.769,1.04,inactive
"NBPF5P (NBPF member 5, pseudogene)",0.78,0.759,1.32,inactive
PLEKHM1 (pleckstrin homology and RUN domain containing M1),-0.901,1.48,0.0174,inactive
POC1A (POC1 centriolar protein A),-0.189,0.27,-0.407,inactive
ZIC3 (Zic family zinc finger 3),-0.544,-0.942,-0.584,inactive
CHD7 (chromodomain helicase DNA binding protein 7),0.184,0.0828,0.304,inactive
FRMD7 (FERM domain containing 7),-1.38,-1.45,-0.977,inactive
CCDC110 (coiled-coil domain containing 110),-1.06,-1.01,-1.08,inactive
ISY1 (ISY1 spliceosome associated protein),-1.09,-1.13,-1.13,inactive
"ABHD16A (abhydrolase domain containing 16A, phospholipase)",-1.09,-2.29,-0.806,inactive
UBXN4 (UBX domain protein 4),0.0596,-0.924,0.00939,inactive
AHNAK2 (AHNAK nucleoprotein 2),-1.51,-0.415,-1.06,inactive
ZFYVE26 (zinc finger FYVE-type containing 26),-1.47,-0.297,-0.461,inactive
LINC01904 (long independently transcribed non-coding RNA 1904),0.564,0.253,0.147,inactive
RPL7AP32 (ribosomal protein L7a pseudogene 32),0.204,-0.936,0.288,inactive
CTDNEP1 (CTD nuclear envelope phosphatase 1),1.28,-2.34,0.0152,inactive
ERGIC1 (endoplasmic reticulum-golgi intermediate compartment 1),0.823,0.553,0.146,inactive
EPHA2 (EPH receptor A2),0.15,0.353,0.0503,inactive
TMEM127 (transmembrane protein 127),-0.648,-0.896,-1.8,inactive
LINC01801 (long independently transcribed non-coding RNA 1801),-0.0185,0.084,0.327,inactive
GHDC (GH3 domain containing),2.43,1.67,1.86,inactive
CALM3 (calmodulin 3),1.33,0.323,0.17,inactive
DNM1P33 (dynamin 1 pseudogene 33),-1.98,-2.1,-2.2,active
LOC729645,-1.06,-0.669,-0.878,inactive

14 of these entries, set out differently.
IL23R (interleukin 23 receptor): robust z-score, replicate 1 = 0.262; robust z-score, replicate 2 = 0.247; robust z-score, replicate 3 = 0.54; outcome = inactive
RAB30 (RAB30, member RAS oncogene family): robust z-score, replicate 1 = 0.854; robust z-score, replicate 2 = 0.698; robust z-score, replicate 3 = 1.11; outcome = inactive
SF3B1 (splicing factor 3b subunit 1): robust z-score, replicate 1 = -0.0372; robust z-score, replicate 2 = -0.111; robust z-score, replicate 3 = 1.05; outcome = inactive
RPS4XP13 (ribosomal protein S4X pseudogene 13): robust z-score, replicate 1 = -0.433; robust z-score, replicate 2 = -0.167; robust z-score, replicate 3 = -0.412; outcome = inactive
ROCK1 (Rho associated coiled-coil containing protein kinase 1): robust z-score, replicate 1 = -1.26; robust z-score, replicate 2 = -1.6; robust z-score, replicate 3 = -1.78; outcome = inactive
ACTN3 (actinin alpha 3): robust z-score, replicate 1 = -1.3; robust z-score, replicate 2 = -1.21; robust z-score, replicate 3 = -0.151; outcome = inactive
P2RY2 (purinergic receptor P2Y2): robust z-score, replicate 1 = -0.446; robust z-score, replicate 2 = 0.0394; robust z-score, replicate 3 = -0.0116; outcome = inactive
FAM117A (family with sequence similarity 117 member A): robust z-score, replicate 1 = -0.888; robust z-score, replicate 2 = -0.97; robust z-score, replicate 3 = -0.783; outcome = inactive
ARL10 (ARF like GTPase 10): robust z-score, replicate 1 = 0.471; robust z-score, replicate 2 = -0.0345; robust z-score, replicate 3 = 1.16; outcome = inactive
RHEB (Ras homolog, mTORC1 binding): robust z-score, replicate 1 = -2.21; robust z-score, replicate 2 = -0.0371; robust z-score, replicate 3 = -1.41; outcome = inactive
SGIP1 (SH3GL interacting endocytic adaptor 1): robust z-score, replicate 1 = 0.555; robust z-score, replicate 2 = -0.11; robust z-score, replicate 3 = -0.572; outcome = inactive
KIAA0087 (KIAA0087 lncRNA): robust z-score, replicate 1 = 0.276; robust z-score, replicate 2 = -0.505; robust z-score, replicate 3 = -1.42; outcome = inactive
NCOR2 (nuclear receptor corepressor 2): robust z-score, replicate 1 = 1.58; robust z-score, replicate 2 = 0.319; robust z-score, replicate 3 = 1.42; outcome = inactive
PDE4DIPP3 (PDE4DIP pseudogene 3): robust z-score, replicate 1 = 0.389; robust z-score, replicate 2 = 0.525; robust z-score, replicate 3 = 0.826; outcome = inactive
